Results deposited as PubChem BioAssay AID1224830 (NIAID, 2016).
In all, the deposit lists about 18,000 reagents; this is an unselected part. Over the whole deposit, about 2,900 (16%) got an active call. 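Calls are made per well; low scores hint the gene aids the LPS response, high scores that it dampens it.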 Repeated entries: four replicate wells of each siRNA pool. Reagent sequences are not shown.

Assay: 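Genes whose knock-down alters the TNF-alpha reporter response to LPS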 (primary screen)
Cells: human THP-1 monocytic leukaemia cells, TNF dual-luciferase reporter clone, PMA-differentiated to macrophage-like cells
Reagent: siRNA pool against human genes, 50 nM
Timing: LPS for 4 h, given about 3 days after siRNA transfection
Conditions: bacterial LPS (TLR4 ligand), 10 ng/ml
Measurement: 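TNF firefly reporter luminescence divided by renilla, normalised to the plate median, then turned into a robust z-score for each replicate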
Direction: TNF reporter robust z-score: higher = stronger TNF reporter response to LPS
Hit rule: 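a well is active when its z-score exceeds 2.8 or falls below -1.5; control wells carry no call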

| Target gene | TNF reporter robust z-score | Call |
| --- | --- | --- |
| SERTAD3 (SERTA domain containing 3) | 1.18 | inactive |
| SERTAD3 (SERTA domain containing 3) | 0.02 | inactive |
| SERTAD3 (SERTA domain containing 3) | 0.08 | inactive |
| SERTAD3 (SERTA domain containing 3) | 2.12 | inactive |
| ITPKA (inositol-trisphosphate 3-kinase A) | -0.18 | inactive |
| ITPKA (inositol-trisphosphate 3-kinase A) | -0.49 | inactive |
| ITPKA (inositol-trisphosphate 3-kinase A) | 0.01 | inactive |
| ITPKA (inositol-trisphosphate 3-kinase A) | -0.24 | inactive |
| KRTCAP2 (keratinocyte associated protein 2) | -0.37 | inactive |
| KRTCAP2 (keratinocyte associated protein 2) | -0.44 | inactive |
| KRTCAP2 (keratinocyte associated protein 2) | -0.48 | inactive |
| KRTCAP2 (keratinocyte associated protein 2) | -0.24 | inactive |
| SCIN (scinderin) | -0.48 | inactive |
| SCIN (scinderin) | -0.68 | inactive |
| SCIN (scinderin) | -1.19 | inactive |
| SCIN (scinderin) | 0.32 | inactive |
| CEP162 (centrosomal protein 162) | 0 | inactive |
| CEP162 (centrosomal protein 162) | 0.06 | inactive |
| CEP162 (centrosomal protein 162) | 0.18 | inactive |
| CEP162 (centrosomal protein 162) | -0.48 | inactive |
| WDR38 (WD repeat domain 38) | 3.85 | active |
| WDR38 (WD repeat domain 38) | -0.03 | inactive |
| WDR38 (WD repeat domain 38) | 0.94 | inactive |
| WDR38 (WD repeat domain 38) | 0.6 | inactive |
| FAM20B (FAM20B glycosaminoglycan xylosylkinase) | 3.3 | active |
| FAM20B (FAM20B glycosaminoglycan xylosylkinase) | 3.56 | active |
| FAM20B (FAM20B glycosaminoglycan xylosylkinase) | 0.89 | inactive |
| FAM20B (FAM20B glycosaminoglycan xylosylkinase) | 2.45 | inactive |
| EDNRA (endothelin receptor type A) | 0.16 | inactive |
| EDNRA (endothelin receptor type A) | -0.28 | inactive |
| EDNRA (endothelin receptor type A) | 0.67 | inactive |
| EDNRA (endothelin receptor type A) | 0.06 | inactive |
| S100A9 (S100 calcium binding protein A9) | -1.09 | inactive |
| S100A9 (S100 calcium binding protein A9) | -0.22 | inactive |
| S100A9 (S100 calcium binding protein A9) | -0.35 | inactive |
| S100A9 (S100 calcium binding protein A9) | -0.57 | inactive |
| CIZ1 (CDKN1A interacting zinc finger protein 1) | 0.2 | inactive |
| CIZ1 (CDKN1A interacting zinc finger protein 1) | 1.17 | inactive |
| CIZ1 (CDKN1A interacting zinc finger protein 1) | 1.01 | inactive |
| CIZ1 (CDKN1A interacting zinc finger protein 1) | 1.54 | inactive |
| DUSP5 (dual specificity phosphatase 5) | -1.35 | inactive |
| DUSP5 (dual specificity phosphatase 5) | -0.9 | inactive |
| DUSP5 (dual specificity phosphatase 5) | -1.42 | inactive |
| DUSP5 (dual specificity phosphatase 5) | -1.08 | inactive |
| SLC39A10 | 0.01 | inactive |
| SLC39A10 | -0.47 | inactive |
| SLC39A10 | -0.91 | inactive |
| SLC39A10 | -1.5 | inactive |

Sorted by “TNF reporter robust z-score” (lowest first): some entries from above.
| Target gene | TNF reporter robust z-score | Call |
| --- | --- | --- |
| KRTCAP2 (keratinocyte associated protein 2) | -0.44 | inactive |
| KRTCAP2 (keratinocyte associated protein 2) | -0.37 | inactive |
| ITPKA (inositol-trisphosphate 3-kinase A) | -0.24 | inactive |
